Measured values reported in US9962341B2, “Active pharmaceutical ingredient (API) comprising cannabinoids for use in the treatment of cancer” (GW Pharma Limited, priority 2014, dated 2018).

Assays:
Format in all cases: cell-based
MKN45 = test: Cell viability (CellTiter-Blue, 72 h), MKN45 gastric cancer cells; details: 1% FBS
Experimental: (§1) The following cell lines were tested in this example: Lung Cancer (A549, NCI-H460); Pancreatic cancer (PANC1, Mia-Pa-Ca-2); Melanoma (WM115, A375); Ovarian cancer (OVCAR3, SKOV3); Gastric cancer (MKN45, HGC-27); Renal cancer (ACHN) and Bladder Cancer (RT112).
(§2) Each tumour cell line was maintained in vitro in RPMI 1640+10% heat inactivated FBS and 2 mM L-glutamine (growth media) at 37° C. in 5% CO2 and humidified conditions. The cells were harvested, washed, re-suspended into growth medium and counted. The cells were re-suspended into assay media (RPMI 1640+5% heat inactivated FBS+ and 2 mM L-glutamine) at 4×10^4 cells/ml (dependent upon cell type) and plated into the middle 240 wells of 384 well tissue culture plates (Corning CellBind, black-wall plates) 25 μl/well aliquots; 50 μl of growth media was aliquoted into the outer wells. There were 3 plates for each cell line.
(§3) The plates were incubated overnight at 37° C., in 5% humidified CO2.
(§4) The phytocannabinoid test compounds were prepared in 100% DMSO vehicle at a stock concentration of 20 and 40 mM.
(§5) Starting with the 20 mM stock in DMSO, this was serially diluted (2 fold) in DMSO in a 96-well plate, to 20 (no dilution), 10, 5, 2.5, 1.25, 0.625, 0.315, 0.157 and […]. Following this, 10 ul of each compound dilution was diluted into 990 ul of 1% (v/v) FBS media in a deep well block making the final concentrations of 200, 100, 50, 25, 12.5, 6.25, 3.125, 1.56 and 0.79 μM (2× final assay concentrations and 1% DMSO).
(§6) An equal volume of each cannabinoid in the combination (stock concentration 40 mM) was mixed together to make a stock of 20 mM of each cannabinoid in DMSO. This was serially diluted (2 fold) in DMSO in a 96-well plate, to 20 (no dilution), 10, 5, 2.5, 1.25, 0.625, 0.315, 0.157 and […]. Following this, 10 ul of each combination dilution was diluted into 990 ul of 1% (v/v) FBS media in a deep well block making the final concentrations of 200, 100, 50, 25, 12.5, 6.25, 3.125, 1.56 and 0.79 μM (2× final assay concentrations and 1% DMSO).
(§7) Cisplatin (stock of 1 mg/ml=3.33 mM in water) was diluted in 1% FBS media to give a stock concentration of 1 mM. This was then diluted in 1% FBS media from the stock solution to 200 μM, then serially diluted (3-fold) in 1% FBS media to 200 (no dilution), 66.66, 22.22, 7.41, 2.47, 0.82, 0.27, 0.09, 0.03 μM (2× final assay concentrations; no DMSO).
(§8) The plates were incubated for 72 h at 37° C. in 5% humidified CO2. To develop the plates, at 72 h, 10 μl of CellTiter-Blue™ reagent was added to each test/blank well.
(§9) The plates were incubated at 37° C., 5% humidified CO2. Fluorescence was measured using a Flex II Station plate reader (570 nm excitation wavelength, 600 nm emission wavelength, 590 nm cut-off) after 3 h.
(§10) The phytocannabinoid compounds CBD, CBGA, CBG, CBDA, THCV and THC were tested on a panel of lung (A549, NCI-H460), pancreatic (PANC1, Mia-Pa-Ca-2), melanoma (WM115, A375), ovarian (OVCAR3, SKOV3), gastric (MKN45, HGC-27), renal (ACHN) and bladder (RT112) cancer cell lines according to the protocol for 72 h in media containing 1% FBS.
(§11) The IC50 values for each phytocannabinoid and combination of CBD with the other phytocannabinoids was calculated for each cell line. The raw data values expressed in relative fluorescent units were normalised to the vehicle for each individual plate and any reduction in fluorescence indicated a decrease in viability.
(§12) This calculation was as described in Example 1 above.

PANC-1 = test: Cell viability (CellTiter-Blue, 72 h), PANC-1 pancreatic cancer cells; details: PANC-1, 1% FBS
Experimental: as §1, §2, §3, §4, §5, §6
(§13) Gemcitabine SOC was prepared in 100% DMSO to give a stock concentration of 20 mM. This was then serially diluted (3 fold) in DMSO in a 96-well plate, to 20 (no dilution), 6.6, 2.2, 0.741, 0.247, 0.082, 0.027, 0.009 and 0.003 mM. Following this, 10 ul of each dilution was further diluted into 990 ul of 1% (v/v) FBS media making the final concentrations of 200 (no dilution), 66.66, 22.22, 7.41, 2.47, 0.82, 0.27, 0.09, 0.03 μM (2× final assay concentrations and 1% DMSO).
as §8, §9, §10, §11, §12

A549 = test: Cell viability (CellTiter-Blue, 72 h), A549 lung cancer cells; details: A549, 1% FBS
Experimental: as §1, §2, §3, §4, §5, §6
(§14) Taxotere SOC was prepared in 100% DMSO to give a stock concentration of 10 mM. This was diluted in DMSO from the stock solution to 200 μM, then serially diluted (3-fold) in DMSO to 200 (no dilution), 66.66, 22.22, 7.41, 2.47, 0.82, 0.27, 0.09, 0.03 μM. 10 ul of each of the taxotere dilutions was diluted in 990 ul of 1% (v/v) FBS media making the final concentrations of 2, 0.67, 0.22, 0.074, 0.0247, 0.0082, 0.0027 0.0009, 0.0003 μM (2× final assay concentrations and 1% DMSO).
as §8, §9, §10, §11, §12

HGC-27 = test: Cell viability (CellTiter-Blue, 72 h), HGC-27 gastric cancer cells; details: HGC27 cells, 1% FBS
Experimental: as §1, §2, §3, §4, §5, §6, §7, §8, §9, §10, §11, §12

WM115 = test: Cell viability (CellTiter-Blue, 72 h), WM115 melanoma cells; details: WM115, 1% FBS
Experimental: as §1, §2, §3, §4, §5, §6, §7, §8, §9, §10, §11, §12

NCI-H460 = test: Cell viability (CellTiter-Blue, 72 h), NCI-H460 lung cancer cells; details: NCI-H460, 1% FBS
Experimental: as §1, §2, §3, §4, §5, §6, §14, §8, §9, §10, §11, §12

SKOV3 = test: Cell viability (CellTiter-Blue, 72 h), SKOV3 ovarian cancer cells; details: 1% FBS
Experimental: as §1, §2, §3, §4, §5, §6, §7, §8, §9, §10, §11, §12

ACHN = test: Cell viability (CellTiter-Blue, 72 h), ACHN renal cancer cells; details: 1% FBS
Experimental: as §1, §2, §3, §4, §5, §6, §14, §8, §9, §10, §11, §12

A375 = test: Cell viability (CellTiter-Blue, 72 h), A375 melanoma cells; details: A375, 1% FBS
Experimental: as §1, §2, §3, §4, §5, §6, §7, §8, §9, §10, §11, §12

Mia-Pa-Ca-2 = test: Cell viability (CellTiter-Blue, 72 h), Mia-Pa-Ca-2 pancreatic cancer cells; details: MIA-PA-CA2, 1% FBS
Experimental: as §1, §2, §3, §4, §5, §6, §13, §8, §9, §10, §11, §12

For `CCCCCc1cc(O)c2c(c1)OC(C)(C)[C@@H]1CCC(C)=C[C@@H]21` [THC, Tetrahydrocannabinol, reference compound], which “m (shape parameter of the curve)” value (MKN45) is on record?
Its value is 13.26.

And the “m (shape parameter of dose effect curve)” value (PANC-1)?
The value was 6.63.

What about the “m (shape parameter of dose effect curve)” value (A549) of the same compound?
Its value is 13.60.

And the “m (shape parameter of the curve)” value (HGC-27)?
The value was 6.12.

And the “m (shape parameter of dose effect curve)” value (WM115)?
Its value is 6.44.

And the “m (shape parameter of dose effect curve)” value (NCI-H460)?
The value was 5.34.

And the “m (shape parameter of the curve)” value (SKOV3)?
Its value is 12.17.

What about the “m (shape parameter of the curve)” value (ACHN) of the same compound?
Its value is 13.12.

And the “m (shape parameter of dose effect curve)” value (A375)?
The value was 4.67.

And the “m (shape parameter of dose effect curve)” value (Mia-Pa-Ca-2)?
Its value is 5.72.
